From publication PMC5570908 come the findings set out here.

The chains behind the UniProt entries cited, without tags or fusion partners.
UniProt P84022: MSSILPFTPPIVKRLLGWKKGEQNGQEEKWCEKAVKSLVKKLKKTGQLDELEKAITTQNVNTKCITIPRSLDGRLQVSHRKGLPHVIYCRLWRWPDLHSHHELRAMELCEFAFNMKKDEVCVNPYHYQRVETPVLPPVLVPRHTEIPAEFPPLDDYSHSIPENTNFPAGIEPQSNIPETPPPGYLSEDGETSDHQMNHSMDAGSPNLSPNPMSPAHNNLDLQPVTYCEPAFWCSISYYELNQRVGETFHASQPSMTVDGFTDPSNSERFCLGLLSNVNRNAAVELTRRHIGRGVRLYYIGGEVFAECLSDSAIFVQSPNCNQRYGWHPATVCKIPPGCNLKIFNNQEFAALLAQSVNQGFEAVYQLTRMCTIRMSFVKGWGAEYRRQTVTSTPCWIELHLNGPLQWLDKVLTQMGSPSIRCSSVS
UniProt Q9HAU4: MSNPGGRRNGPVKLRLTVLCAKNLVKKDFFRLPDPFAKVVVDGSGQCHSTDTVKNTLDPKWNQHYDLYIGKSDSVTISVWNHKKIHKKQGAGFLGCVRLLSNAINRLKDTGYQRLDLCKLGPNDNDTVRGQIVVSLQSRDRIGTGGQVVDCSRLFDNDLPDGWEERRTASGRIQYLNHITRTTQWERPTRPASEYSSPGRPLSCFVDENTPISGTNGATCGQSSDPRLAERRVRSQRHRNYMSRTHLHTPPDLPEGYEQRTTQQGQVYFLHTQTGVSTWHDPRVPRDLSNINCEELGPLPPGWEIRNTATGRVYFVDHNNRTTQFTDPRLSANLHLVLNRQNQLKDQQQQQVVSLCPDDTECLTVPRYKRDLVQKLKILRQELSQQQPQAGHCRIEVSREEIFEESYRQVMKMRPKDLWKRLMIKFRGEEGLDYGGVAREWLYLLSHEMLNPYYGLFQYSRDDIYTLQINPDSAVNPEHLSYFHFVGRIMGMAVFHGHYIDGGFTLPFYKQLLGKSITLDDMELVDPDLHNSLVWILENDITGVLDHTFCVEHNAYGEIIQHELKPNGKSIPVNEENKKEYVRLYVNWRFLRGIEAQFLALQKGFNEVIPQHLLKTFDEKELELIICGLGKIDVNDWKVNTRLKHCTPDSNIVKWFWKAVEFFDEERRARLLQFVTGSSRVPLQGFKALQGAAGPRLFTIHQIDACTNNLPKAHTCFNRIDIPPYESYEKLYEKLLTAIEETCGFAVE

In the test the target is Myc-Smad3 (UniProt P84022). The test is described as follows: co-IP; MDA-MB-231 cells transfected with Flag-Smurf1 and Myc-Smad3; MG132 (20 µM) for 8 h before harvest; HEPES lysis buffer (20 mM HEPES pH 7.2, 50 mM NaCl, 0.5% Triton X-100, 1 mM NaF, 1 mM dithiothreitol); antibody 3 h at 4 °C, protein A/G-plus agarose; western blot (anti-Myc-HRP to detect Smad3). A general note: Immunoblotting shows a protein as a band on a membrane.

No constants are given. Whether binding was seen depends on the method and setting. Binding seen in cells or lysates may run through a third protein. Some binding calls cover weakened binding; strength is not graded here.

“Smurf2 (from UniProt Q9HAU4 1-748) (enzyme)”: the binding entry is on record as “binds”.
